For this series, the system named is TGF-β1 induced total collagen accumulation in MRC-5 cells. As to the kind of experiment: Sircol collagen assay: inhibition of TGF-β1-induced total collagen accumulation. Type of series: cell-based, human. The settings on record: for fold more potent than Pirfenidone (anti-fibrotic IC50): collagen accumulation IC50 versus Pirfenidone; for fold more potent than matrine (anti-fibrotic IC50): collagen accumulation IC50 versus matrine. As to the method: Higher SI values indicates better safety profile.
MRC-5 cells in 1 × 10^5 cells/mL density were seeded in TC treated 96-well plates and allowed to reach confluence for 48 h. The cells were then starved using MEM-NEAA containing 0.2% BSA for 24 h. After starvation, the medium was changed to MEM-NEAA supplemented with 0.2% BSA, 100 μM L-Proline, 100 μM Ascorbic acid, with or without 10 ng/mL TGF-β1 (Peprotech) in the presence of vehicle or different concentrations of compounds. After 48 h incubation, the MRC-5 cells were washed with phosphate buffered saline (PBS) and fixed in −20 °C precooled methanol for 10 min. The cells were than washed with PBS before incubation in 0.1% PSR staining solution (0.1% Sirus red in saturated water solution of picric acid) for 1 h. The staining solution was then removed and the cells were washed with 0.1% acetic acid for three times. 200 μL of 0.1 mol/L sodium hydroxide solution were added to each well and the plates were placed on a rocking platform for 1 h. The optical density (OD) values at 550 nm were determined with an Infinite 2000 spectrophotometer.

Consider three compounds from publication PMC6470603, “Design and Synthesis of Matrine Derivatives as Novel Anti-Pulmonary Fibrotic Agents via Repression of the TGFβ/Smad Pathway” (Molecules, 2019).

Molecules are shown by their SMILES.

`O=C1CC(n2ccc3c([N+](=O)[O-])cccc32)C[C@@H]2[C@H]3CCCN4CCC[C@@H](CN12)[C@@H]34` (stereo partly drawn) [3d, 13-(4-nitro-1H-indol-1-yl)-matrine]: the “fold more potent than Pirfenidone (anti-fibrotic IC50)” value is recorded as 307 fold and the “fold more potent than matrine (anti-fibrotic IC50)” value worked out at 204 fold.
As for `O=C1CC(n2ccc3cc(Br)ccc32)C[C@@H]2[C@H]3CCCN4CCC[C@@H](CN12)[C@@H]34` (stereo partly drawn) [3g, 13-(5-bromo-1H-indol-1-yl)-matrine], the “fold more potent than Pirfenidone (anti-fibrotic IC50)” value is given as 203 fold and the “fold more potent than matrine (anti-fibrotic IC50)” value came out at 135 fold.
The corresponding values for `O=C1CC(n2ccc3cc(Cl)ccc32)CC2C3CCCN4CCCC(CN12)C34` (stereo not drawn) [3f, 13-(5-chloro-1H-indol-1-yl)-matrine] are 400 fold and 266 fold.
